{"sequences": {"note": "Chains of the proteins cited; added tags and fusions are not shown.", "UniProt O95477": "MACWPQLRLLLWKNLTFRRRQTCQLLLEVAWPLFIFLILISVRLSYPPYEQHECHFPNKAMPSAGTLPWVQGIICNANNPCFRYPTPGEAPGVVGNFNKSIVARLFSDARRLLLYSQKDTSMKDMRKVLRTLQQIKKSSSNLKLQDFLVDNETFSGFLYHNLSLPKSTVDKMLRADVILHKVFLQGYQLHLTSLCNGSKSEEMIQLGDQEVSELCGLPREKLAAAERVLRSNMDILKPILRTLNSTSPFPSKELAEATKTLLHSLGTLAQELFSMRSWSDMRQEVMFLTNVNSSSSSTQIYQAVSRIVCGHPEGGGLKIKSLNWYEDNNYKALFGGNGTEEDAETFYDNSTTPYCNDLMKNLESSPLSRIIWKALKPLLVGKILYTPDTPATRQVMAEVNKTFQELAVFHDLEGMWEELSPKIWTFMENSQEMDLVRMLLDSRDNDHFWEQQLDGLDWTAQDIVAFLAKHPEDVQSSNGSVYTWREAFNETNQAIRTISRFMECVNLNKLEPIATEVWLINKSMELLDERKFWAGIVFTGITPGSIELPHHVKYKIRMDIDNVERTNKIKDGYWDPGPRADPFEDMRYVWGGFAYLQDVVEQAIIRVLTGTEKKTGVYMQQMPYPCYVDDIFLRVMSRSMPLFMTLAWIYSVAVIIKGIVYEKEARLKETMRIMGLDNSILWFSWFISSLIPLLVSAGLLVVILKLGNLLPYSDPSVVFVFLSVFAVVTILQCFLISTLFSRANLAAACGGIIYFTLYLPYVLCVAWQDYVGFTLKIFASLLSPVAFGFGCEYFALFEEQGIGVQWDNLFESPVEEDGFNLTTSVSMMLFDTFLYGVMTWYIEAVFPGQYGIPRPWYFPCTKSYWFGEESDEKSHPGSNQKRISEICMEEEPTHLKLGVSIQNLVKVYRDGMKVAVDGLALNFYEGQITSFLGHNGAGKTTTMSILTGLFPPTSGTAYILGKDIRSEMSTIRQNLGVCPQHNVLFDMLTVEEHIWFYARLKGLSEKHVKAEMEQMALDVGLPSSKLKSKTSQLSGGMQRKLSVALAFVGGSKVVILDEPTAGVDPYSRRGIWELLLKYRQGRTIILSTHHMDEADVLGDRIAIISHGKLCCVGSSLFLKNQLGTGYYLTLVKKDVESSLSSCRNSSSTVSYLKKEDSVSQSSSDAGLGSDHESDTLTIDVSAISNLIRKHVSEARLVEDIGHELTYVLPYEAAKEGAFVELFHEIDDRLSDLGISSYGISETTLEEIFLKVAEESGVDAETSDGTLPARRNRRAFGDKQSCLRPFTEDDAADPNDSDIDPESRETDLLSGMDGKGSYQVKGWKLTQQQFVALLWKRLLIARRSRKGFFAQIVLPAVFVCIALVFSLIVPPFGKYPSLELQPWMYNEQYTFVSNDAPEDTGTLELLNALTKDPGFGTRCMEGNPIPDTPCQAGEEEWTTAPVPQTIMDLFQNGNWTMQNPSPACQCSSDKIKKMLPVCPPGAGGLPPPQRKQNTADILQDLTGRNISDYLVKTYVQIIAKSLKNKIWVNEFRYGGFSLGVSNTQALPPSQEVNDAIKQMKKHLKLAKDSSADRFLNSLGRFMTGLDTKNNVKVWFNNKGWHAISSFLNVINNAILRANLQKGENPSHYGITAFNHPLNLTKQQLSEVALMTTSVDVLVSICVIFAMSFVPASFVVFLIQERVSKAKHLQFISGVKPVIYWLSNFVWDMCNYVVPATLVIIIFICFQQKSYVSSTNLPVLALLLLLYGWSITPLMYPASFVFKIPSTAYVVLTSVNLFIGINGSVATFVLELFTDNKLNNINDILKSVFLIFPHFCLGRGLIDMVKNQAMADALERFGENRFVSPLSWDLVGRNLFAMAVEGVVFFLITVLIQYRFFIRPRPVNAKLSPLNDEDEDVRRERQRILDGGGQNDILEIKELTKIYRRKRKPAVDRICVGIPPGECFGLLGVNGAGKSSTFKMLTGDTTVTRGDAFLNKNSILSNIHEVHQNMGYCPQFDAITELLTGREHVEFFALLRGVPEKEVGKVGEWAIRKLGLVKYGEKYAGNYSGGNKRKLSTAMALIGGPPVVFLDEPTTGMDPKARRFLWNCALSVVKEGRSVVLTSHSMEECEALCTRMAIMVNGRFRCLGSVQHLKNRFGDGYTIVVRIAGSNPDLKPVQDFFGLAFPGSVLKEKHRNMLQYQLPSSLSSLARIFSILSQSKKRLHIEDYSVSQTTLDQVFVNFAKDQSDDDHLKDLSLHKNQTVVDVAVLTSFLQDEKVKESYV", "UniProt P41233": "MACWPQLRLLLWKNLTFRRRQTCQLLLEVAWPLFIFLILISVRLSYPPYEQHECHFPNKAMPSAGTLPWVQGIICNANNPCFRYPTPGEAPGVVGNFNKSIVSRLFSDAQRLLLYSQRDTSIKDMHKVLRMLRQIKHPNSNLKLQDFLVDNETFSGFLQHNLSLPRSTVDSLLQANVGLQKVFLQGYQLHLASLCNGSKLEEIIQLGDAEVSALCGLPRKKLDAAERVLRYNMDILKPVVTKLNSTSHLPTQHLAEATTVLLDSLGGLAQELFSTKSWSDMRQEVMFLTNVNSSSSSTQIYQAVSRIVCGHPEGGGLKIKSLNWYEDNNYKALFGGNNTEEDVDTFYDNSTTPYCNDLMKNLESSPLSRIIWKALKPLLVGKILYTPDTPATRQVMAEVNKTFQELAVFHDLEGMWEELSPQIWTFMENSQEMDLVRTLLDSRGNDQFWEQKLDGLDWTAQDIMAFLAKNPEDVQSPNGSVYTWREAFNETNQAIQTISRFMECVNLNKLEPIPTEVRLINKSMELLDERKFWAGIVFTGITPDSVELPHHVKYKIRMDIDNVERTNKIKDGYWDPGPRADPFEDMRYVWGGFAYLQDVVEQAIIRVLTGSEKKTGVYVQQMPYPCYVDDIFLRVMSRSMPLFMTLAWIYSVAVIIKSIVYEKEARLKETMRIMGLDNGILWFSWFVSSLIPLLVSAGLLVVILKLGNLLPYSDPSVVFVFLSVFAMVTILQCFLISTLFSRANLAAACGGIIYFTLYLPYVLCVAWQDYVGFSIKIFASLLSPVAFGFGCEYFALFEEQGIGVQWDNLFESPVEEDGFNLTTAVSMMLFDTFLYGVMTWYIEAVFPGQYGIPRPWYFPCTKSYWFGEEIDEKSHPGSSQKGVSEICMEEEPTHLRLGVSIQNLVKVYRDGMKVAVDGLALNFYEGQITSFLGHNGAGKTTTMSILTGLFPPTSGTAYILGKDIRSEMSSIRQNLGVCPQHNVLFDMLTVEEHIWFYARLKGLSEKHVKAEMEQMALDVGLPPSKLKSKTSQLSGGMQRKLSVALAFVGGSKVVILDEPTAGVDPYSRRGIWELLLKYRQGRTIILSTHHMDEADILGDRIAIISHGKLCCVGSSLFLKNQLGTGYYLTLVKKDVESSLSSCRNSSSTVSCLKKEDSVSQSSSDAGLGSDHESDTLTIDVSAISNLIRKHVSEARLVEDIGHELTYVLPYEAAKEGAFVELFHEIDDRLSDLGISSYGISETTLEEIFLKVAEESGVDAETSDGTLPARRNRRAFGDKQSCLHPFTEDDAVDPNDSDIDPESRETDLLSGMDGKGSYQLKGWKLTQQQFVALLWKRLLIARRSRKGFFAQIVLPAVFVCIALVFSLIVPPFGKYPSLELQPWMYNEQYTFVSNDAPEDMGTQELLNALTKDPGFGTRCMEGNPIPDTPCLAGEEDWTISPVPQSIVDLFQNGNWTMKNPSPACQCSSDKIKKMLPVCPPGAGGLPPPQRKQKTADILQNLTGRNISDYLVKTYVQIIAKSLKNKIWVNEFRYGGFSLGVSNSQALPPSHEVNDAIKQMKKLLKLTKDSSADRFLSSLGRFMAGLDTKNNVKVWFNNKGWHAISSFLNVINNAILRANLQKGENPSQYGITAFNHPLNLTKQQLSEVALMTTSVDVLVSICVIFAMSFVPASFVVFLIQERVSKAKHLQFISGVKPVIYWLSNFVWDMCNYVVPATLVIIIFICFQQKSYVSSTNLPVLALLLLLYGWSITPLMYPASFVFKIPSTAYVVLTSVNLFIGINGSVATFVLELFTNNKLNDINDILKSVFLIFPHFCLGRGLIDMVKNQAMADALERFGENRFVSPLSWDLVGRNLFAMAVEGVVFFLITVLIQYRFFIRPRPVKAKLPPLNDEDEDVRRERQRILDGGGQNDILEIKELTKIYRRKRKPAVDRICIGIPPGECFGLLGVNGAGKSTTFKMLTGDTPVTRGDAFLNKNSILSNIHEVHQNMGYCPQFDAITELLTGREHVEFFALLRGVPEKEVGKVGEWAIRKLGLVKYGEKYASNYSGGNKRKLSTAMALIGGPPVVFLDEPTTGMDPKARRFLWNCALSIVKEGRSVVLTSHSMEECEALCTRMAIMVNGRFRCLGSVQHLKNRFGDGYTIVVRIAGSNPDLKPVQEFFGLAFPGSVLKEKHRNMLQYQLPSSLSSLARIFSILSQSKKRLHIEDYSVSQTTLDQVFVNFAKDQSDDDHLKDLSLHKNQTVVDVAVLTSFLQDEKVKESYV", "UniProt Q99LI8": "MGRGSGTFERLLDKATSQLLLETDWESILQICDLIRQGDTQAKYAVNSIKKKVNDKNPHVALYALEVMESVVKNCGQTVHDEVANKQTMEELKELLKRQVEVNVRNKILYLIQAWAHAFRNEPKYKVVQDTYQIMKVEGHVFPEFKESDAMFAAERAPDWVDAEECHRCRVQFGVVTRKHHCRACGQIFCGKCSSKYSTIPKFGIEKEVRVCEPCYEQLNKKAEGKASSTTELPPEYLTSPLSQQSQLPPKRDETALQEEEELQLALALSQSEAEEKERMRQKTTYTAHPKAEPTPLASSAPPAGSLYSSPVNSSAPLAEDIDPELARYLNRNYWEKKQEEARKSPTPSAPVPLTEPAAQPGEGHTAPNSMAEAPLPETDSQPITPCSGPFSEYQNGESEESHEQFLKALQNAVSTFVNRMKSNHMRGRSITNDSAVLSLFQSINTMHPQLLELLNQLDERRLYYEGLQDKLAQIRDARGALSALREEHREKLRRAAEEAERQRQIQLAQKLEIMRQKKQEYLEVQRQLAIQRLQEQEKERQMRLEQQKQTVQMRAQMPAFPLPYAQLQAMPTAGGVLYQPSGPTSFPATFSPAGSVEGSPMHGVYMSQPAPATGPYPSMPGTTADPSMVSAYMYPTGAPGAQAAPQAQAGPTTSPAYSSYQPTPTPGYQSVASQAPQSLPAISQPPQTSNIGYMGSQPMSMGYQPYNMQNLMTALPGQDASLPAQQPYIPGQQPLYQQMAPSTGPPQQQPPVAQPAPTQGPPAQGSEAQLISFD"}, "source": "paper PMC12352907", "key": {"GFP-ABCA1 (WT) (human)": {"target": "GFP-ABCA1 (WT) (human) (UniProt O95477)", "assay": "co-IP; HEK293T cells co-expressing Flag-Listerin with GFP-ABCA1 (WT or truncation mutants), Myc-ABCG1 or Myc-SRB1"}, "Myc-SRB1": {"target": "T1, Myc-SRB1 (UniProt Q8WTV0)", "T1 sequence": "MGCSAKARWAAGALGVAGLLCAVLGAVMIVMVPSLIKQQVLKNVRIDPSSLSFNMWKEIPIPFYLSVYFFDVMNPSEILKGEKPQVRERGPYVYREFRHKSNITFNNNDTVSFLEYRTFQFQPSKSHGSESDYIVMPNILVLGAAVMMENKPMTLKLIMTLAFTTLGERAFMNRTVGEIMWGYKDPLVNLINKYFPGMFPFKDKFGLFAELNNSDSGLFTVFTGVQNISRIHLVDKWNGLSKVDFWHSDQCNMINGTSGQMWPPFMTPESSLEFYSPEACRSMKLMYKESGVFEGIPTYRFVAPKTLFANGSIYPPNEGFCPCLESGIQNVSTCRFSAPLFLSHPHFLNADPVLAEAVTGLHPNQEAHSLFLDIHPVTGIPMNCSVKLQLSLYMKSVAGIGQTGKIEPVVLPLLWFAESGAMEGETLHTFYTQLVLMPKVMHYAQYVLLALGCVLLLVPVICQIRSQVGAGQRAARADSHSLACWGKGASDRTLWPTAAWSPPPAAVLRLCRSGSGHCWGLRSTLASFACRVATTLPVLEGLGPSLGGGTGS", "assay": "co-IP; HEK293T cells co-expressing Flag-Listerin with GFP-ABCA1 (WT or truncation mutants), Myc-ABCG1 or Myc-SRB1"}, "[1]": {"target": "ATP-binding cassette transporter A1 (ABCA1), endogenous in mouse peritoneal macrophages (mouse (endogenous in peritoneal macrophages)) (UniProt P41233)", "assay": "co-IP; endogenous ABCA1 and HRS in oxLDL-treated PMs, with and without Listerin deficiency; an equal amount of nonspecific antibody as negative control"}, "[2]": {"target": "ATP-binding cassette transporter A1 (ABCA1), endogenous in mouse peritoneal macrophages (mouse (endogenous in peritoneal macrophages)) (UniProt P41233)", "assay": "co-IP; endogenous proteins in primary mouse PMs treated with oxLDL (50 μg/mL) for the indicated durations; an equal amount of nonspecific antibody as negative control"}}, "note": "These are yes or no findings as the source states them, for the method shown. In cells and extracts the contact can be indirect. Some entries that bind do so weakly or less than the wild type. For some of these results: Where a sequence is shown, tags or fusion partners need not be part of it."}
{"substance": "Flag-Listerin (from UniProt O94822 1-1766) (enzyme)", "values": [{"measurement": "binding", "setting": "GFP-ABCA1 (WT) (human)", "result": "binds"}, {"measurement": "binding", "setting": "Myc-SRB1", "result": "no binding"}]}
{"substance": "hepatocyte growth factor–regulated tyrosine kinase substrate (HRS), endogenous in mouse peritoneal macrophages (from UniProt Q99LI8 1-775)", "values": [{"measurement": "binding", "setting": "[1]", "result": "binds"}]}
{"substance": "Listerin E3 ubiquitin protein ligase 1 (Listerin), endogenous in mouse peritoneal macrophages (from UniProt Q6A009 1-1767) (enzyme)", "values": [{"measurement": "binding", "setting": "[2]", "result": "binds"}]}
